Article PMC6657678, “The Bub1-TPR Domain Interacts Directly with Mad3 to Generate Robust Spindle Checkpoint Arrest” (Current Biology, 2019)
No constants are given. Whether binding was seen depends on the method and setting. For some assays here: Binding seen in cells or lysates may run through a third protein. Some entries that bind do so weakly or less than the wild type. Tags and fused reporters may be left off the sequences shown.

Tests used:
[1] = target: T1, bub1(T485A, T509A, T518A)-9myc (budding yeast) (S. cerevisiae) (UniProt P41695); experiment: co-IP; budding yeast lysate in Buffer H (25 mM HEPES pH 8.0, 150 mM KCl, 0.1% NP40); anti-Flag (M2) or anti-GFP Protein G Dynabeads, 4°, 3 h; cells induced with galactose (GAL-MPS1) for 2 h; SPC105 or spc105-6A cells
T1 sequence: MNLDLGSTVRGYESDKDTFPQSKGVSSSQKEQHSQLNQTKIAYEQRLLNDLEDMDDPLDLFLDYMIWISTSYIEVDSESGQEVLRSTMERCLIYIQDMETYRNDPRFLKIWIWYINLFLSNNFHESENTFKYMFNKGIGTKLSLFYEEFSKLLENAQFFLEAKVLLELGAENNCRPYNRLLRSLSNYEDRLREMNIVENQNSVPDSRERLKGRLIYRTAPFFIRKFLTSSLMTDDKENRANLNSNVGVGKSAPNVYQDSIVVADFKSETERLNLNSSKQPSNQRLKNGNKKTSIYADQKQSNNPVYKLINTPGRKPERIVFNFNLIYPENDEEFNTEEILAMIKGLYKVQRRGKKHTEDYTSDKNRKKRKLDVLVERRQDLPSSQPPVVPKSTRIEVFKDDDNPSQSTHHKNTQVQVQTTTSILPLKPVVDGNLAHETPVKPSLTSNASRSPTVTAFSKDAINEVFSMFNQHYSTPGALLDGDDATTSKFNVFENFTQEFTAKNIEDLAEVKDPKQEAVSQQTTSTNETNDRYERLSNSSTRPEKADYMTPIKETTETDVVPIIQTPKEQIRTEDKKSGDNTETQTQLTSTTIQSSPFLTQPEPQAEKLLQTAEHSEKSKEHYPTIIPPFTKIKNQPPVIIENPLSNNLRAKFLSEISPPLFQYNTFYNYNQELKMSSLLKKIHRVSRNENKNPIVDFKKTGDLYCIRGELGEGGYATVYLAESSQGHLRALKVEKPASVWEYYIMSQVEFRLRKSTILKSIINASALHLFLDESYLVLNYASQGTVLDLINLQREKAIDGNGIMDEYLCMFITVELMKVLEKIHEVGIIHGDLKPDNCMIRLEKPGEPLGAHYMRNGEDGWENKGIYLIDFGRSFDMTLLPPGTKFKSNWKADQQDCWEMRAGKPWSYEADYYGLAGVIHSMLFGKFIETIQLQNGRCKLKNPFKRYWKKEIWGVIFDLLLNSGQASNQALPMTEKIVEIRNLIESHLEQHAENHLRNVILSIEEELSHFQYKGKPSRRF

[2] = target: T2, Bub1-3FLAG (budding yeast) (S. cerevisiae) (UniProt P41695); experiment: as above
T2 sequence: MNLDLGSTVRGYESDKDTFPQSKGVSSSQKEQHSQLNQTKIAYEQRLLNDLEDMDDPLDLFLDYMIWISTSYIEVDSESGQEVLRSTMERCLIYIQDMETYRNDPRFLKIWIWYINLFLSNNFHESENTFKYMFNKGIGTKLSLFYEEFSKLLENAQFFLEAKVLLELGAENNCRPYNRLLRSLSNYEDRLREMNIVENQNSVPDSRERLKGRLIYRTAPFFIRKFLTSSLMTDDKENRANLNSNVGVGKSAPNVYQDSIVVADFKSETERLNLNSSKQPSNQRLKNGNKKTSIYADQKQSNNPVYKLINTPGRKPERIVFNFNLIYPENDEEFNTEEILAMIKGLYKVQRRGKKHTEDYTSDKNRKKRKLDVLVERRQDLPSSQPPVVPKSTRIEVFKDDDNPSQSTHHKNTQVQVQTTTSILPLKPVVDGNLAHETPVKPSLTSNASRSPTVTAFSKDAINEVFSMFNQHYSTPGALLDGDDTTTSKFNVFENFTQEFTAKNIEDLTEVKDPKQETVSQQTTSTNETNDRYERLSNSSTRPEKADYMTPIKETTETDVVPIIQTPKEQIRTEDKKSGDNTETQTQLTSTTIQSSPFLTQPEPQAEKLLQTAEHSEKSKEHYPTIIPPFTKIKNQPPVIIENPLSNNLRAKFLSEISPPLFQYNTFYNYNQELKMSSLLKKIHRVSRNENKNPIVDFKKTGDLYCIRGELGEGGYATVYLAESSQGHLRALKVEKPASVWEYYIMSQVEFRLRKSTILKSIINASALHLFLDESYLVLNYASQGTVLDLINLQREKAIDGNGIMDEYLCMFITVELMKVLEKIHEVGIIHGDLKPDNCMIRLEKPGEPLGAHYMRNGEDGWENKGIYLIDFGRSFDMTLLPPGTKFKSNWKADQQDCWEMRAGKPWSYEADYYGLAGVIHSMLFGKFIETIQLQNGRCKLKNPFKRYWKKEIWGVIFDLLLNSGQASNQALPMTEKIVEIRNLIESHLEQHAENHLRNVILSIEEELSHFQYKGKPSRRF

[3] = target: T3, NLS-rTetR-mCherry-2xFLAG-Bub1 full length (fission yeast) (S. pombe) (UniProt O94751); experiment: co-IP; fission yeast lysate (50 mM HEPES pH 7.6, 75 mM KCl, 0.1% Triton X-100); anti-FLAG Dynabeads 15-20 min at 4°C, blots anti-Bub1 and anti-Mad1; cells harvested after 16 h of TetR-Mph1(303-678) induction (SynCheck)
T3 sequence: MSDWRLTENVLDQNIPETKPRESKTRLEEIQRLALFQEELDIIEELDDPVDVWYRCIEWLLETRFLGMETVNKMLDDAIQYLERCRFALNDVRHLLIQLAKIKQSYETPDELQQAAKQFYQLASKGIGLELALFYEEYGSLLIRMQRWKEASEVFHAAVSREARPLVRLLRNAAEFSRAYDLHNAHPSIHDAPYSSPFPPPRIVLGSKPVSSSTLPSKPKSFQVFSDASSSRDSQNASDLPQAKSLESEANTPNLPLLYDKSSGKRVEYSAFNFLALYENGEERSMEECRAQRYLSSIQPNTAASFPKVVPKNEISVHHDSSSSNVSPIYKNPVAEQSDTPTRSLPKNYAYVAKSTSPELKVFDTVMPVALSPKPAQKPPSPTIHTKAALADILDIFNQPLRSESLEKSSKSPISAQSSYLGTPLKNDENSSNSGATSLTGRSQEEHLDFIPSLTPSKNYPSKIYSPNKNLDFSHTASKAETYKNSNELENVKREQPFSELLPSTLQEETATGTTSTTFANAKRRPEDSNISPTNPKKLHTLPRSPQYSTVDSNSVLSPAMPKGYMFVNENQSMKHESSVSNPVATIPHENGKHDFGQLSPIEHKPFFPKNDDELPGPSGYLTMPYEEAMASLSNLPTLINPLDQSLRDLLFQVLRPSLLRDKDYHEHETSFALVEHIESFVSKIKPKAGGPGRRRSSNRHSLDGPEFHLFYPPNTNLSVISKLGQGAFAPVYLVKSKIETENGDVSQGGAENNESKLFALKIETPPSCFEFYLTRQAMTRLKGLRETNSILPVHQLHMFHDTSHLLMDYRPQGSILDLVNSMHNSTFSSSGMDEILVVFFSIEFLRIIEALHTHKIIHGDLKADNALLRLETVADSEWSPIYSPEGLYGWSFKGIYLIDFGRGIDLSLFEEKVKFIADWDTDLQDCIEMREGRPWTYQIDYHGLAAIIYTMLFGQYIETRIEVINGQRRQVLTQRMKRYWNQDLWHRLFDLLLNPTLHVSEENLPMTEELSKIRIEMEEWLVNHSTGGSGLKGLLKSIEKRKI

[4] = target: T3, NLS-rTetR-mCherry-2xFLAG-Bub1 full length (fission yeast) (S. pombe); experiment: condition: only without thiamine wash-out (no Mph1 induction, no mitotic arrest); co-IP; as a2, but cells without thiamine wash-out (no Mph1 induction, no mitotic arrest); Figure S3A
[5] = target: T3, NLS-rTetR-mCherry-2xFLAG-Bub1 full length (fission yeast) (S. pombe); experiment: tethering assay (co-recruitment to a tetO array, fluorescence microscopy); TetR-mCherry-Bub1 fragments tethered on a tetO array in S. pombe cells (mph1Δ bub1Δ); Mad3-GFP imaged

B1: Mad1-3GFP (budding yeast) (protein, UniProt P40957 1-749)
chain: MDVRAALQCFFSALSGRFTGKKLGLEIYSIQYKMSNSGGSSPFLESPGGSPDVGSTNGQSNRQIQALQFKLNTLQNEYEIEKLQLQKQTNILEKKYKATIDELEKALNDTKYLYESNDKLEQELKSLKERSANSMNDKDKCIEELRTTLQNKDLEMETLRQQYDSKLSKVTNQCDHFKLEAESSHSLLMKYEKEIKRQSVDIKDLQHQVMEKDDELSSVKASKMINSHPNYSTEEFNELTEMNKMIQDQVQYTKELELANMQQANELKKLKQSQDTSTFWKLENEKLQNKLSQLHVLESQYENLQLENIDLKSKLTKWEIYNDSDDDDDNNVNNNDNNNNNKNDNNNDNNNDTSNNNNINNNNRTKNNIRNNPEEIIRDWKLTKKECLILTDMNDKLRLDNNNLKLLNDEMALERNQILDLNKNYENNIVNLKRLNHELEQQKSLSFEECRLLREQLDGLYSAQNNALLEVENSETHASNKNVNEDMNNLIDTYKNKTEDLTNELKKLNDQLLSNSNDVETQRKKRKLTSDQIGLNYSQRLNELQLENVSVSRELSKAQTTIQLLQEKLEKLTKLKEKKIRILQLRDGPFIKDQFIKKNKLLLLEKENADLLNELKKNNPAVETVPISVYDSLNFELKQFEQEVFKSNKRFSRLKQVFNNKSLEFIDVVNSLLGFKLEFQQDSRVKIFSCFKPEKYLIADLNENTLKSNLDADIEGWDDLMNLWVEDRGQLPCFLATITLRLWEQRQAK
Question: What does the source list for B1?
Answer: binding [1]: no binding; binding [2]: binds

B2: Mad1 (fission yeast) (protein, UniProt P87169 1-676)
chain: MADSPRDPFQSRSQLPRFLATSVKKPNLKKPSVNSANETKNPKLASLEFQLENLKNDLKRKELEFEREQIELQRKLAEEHEQKNSLQLRLTLVEKQLEEQSTSYQKEIEEVRNEKEATQVKIHELLDAKWKEIAELKTQIEKNDQALSEKNHEVMVSNQALQMKDTNLTNLEKLFADSREQLETKCKELAAAEQQLQELSVHNQQLEESIKQVSSSIELEKINAEQRLQISELEKLKAAQEERIEKLSSNNRNVEILKEEKNDLESKLYRFEEYRDKVATLELENEKIQTELNSWKSLITNELPTPEAVSNKLVFLQNTNANLGERVSSLESQLSNKPANQPLGANEKDAAHITELETKLKELHEQNRRLQRQKSLATQEIDLLRENLKSYDDEEAILSEKNTDMKKLERIEGLVKLVDEYKLKLESMPVSLDVDETSDEVSLQKRRRKNEHKDAGYVTELYRKNQHLLFQVKEKTNIEAFLREQIITLESSIATLRQELAQVTEINSCRVLQHRSNPTLKYERIKAAQLEMLNAENSALKALLEDKKVDCLPIQSFKIAERKALDLKKEVAEREKRIQRLKEIFSVKSLEFREAVFSLFGYKLDFMPNGSVRVTSTYSREDNTAFIFDGESSTMKLVGNPSGPEFERLIRFWCDERKTIPGMLAALTLELLDKND
Question: Which binding [3] does the source give for B2 here?
Answer: binds

Question: What about the binding [4] of the same binder?
Answer: no binding

B3: Mad3-GFP (fission yeast) (protein, UniProt O59767 1-310)
chain: MEPLDAGKNWVHMDVIEQSKENIEPRKAGHSASALAKSSSRNHTEKEVAGLQKERMGHERKIETSESLDDPLQVWIDYIKWTLDNFPQGETKTSGLVTLLERCTREFVRNPLYKDDVRYLRIWMQYVNYIDEPVELFSFLAHHHIGQESSIFYEEYANYFESRGLFQKADEVYQKGKRMKAKPFLRFQQKYQQFTHRWLEFAPQSFSSNTNSVNPLQTTFESTNIQEISQSRTKISKPKFKFSVYSDADGSGKDGQPGTWQTLGTVDQRRKENNISATSWVGEKLPLKSPRKLDPLGKFQVHCDEEVSKE
Question: With B3 as the binder, how does the binding [5] read?
Answer: binds
